Primary screen of a compound library

Measurements from “University of Dundee, Small-Polar-MMV Screening Library” (2021), ChEMBL document CHEMBL3988442.

A: 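Whole-cell assay for inhibitors of Mycobacterium tuberculosis growth, labelled Cornell in the record; the read-out is not stated. The concentration is filed as 10 mM, unlikely as a test dose, so the dose is not known. Higher means stronger inhibition (inferred from two other growth screens of the library). About 53,000 compounds were tested under these conditions; 1.7% (about 900) showed 50% or more at least once.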
B: 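Assay on Mycobacterium tuberculosis, filed only as a heat shock assay from Cornell; the read-out is not stated. The concentration is filed as 10 mM, unlikely as a test dose, so the dose is not known. Higher reads as stronger inhibition (inferred: compounds with an IC50 in retests scored well above the rest). Of about 69,000 compounds tested this way, about 930 (1.4%) reached 50% or more in at least one test.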

The filed quantity is “Percent Effect” (%). How 0% and 100% were set is not recorded. Most values in the screen are low, and negative values occur. This is an unselected part of the compounds tested. A dash means the value is not listed here; it may have been measured.

| # | SMILES | A | B |
|---|---|---|---|
| 1 | `Cc1cnn(C2CCCN(C(=O)c3cccc(Cn4ccnc4)c3)C2)c1` (stereo not drawn) | - | -3.749% |
| 2 | `Cc1nc(N2CCCC2)nc(C)c1NS(=O)(=O)c1ccccc1F` | 33.05% | 4.135% |
| 3 | `CCN(CC)C(=O)C(c1ccccc1)N1CCn2c(C)nnc2C1` (stereo not drawn) | 13.45% | 14.41% |
| 4 | `CN(C)C(=O)CN1CCn2cc(Cn3cccn3)nc2C1.O=C(O)C(F)(F)F.O=C(O)C(F)(F)F` | -10.73% | 7.35% |
| 5 | `CC(C(=O)NCCCN1CCN(c2ccccc2)CC1)n1cncn1` (stereo not drawn) | -9.914% | -19.49% |
| 6 | `CCN1CCC(CC(=O)NCC(O)c2ccc3ccccc3c2)CC1` (stereo not drawn) | -18.06% | 13.11% |
| 7 | `[H][C@@]12CCCO[C@]1([H])[C@@H](N(C)Cc1cncnc1)CN2Cc1ccc(C)o1` | 21.45% | -2.295% |
| 8 | `Cc1cc(C(O)CCNC(=O)COc2ccccc2C)c(C)o1` (stereo not drawn) | 32.21% | 7.625% |
| 9 | `CCc1ccsc1C(=O)N1CCCN(Cc2nccn2CC)CC1` | - | -19.13% |
| 10 | `Cc1nccn1CCC1CCCCN1Cc1cccc(CCN)c1` (stereo not drawn) | 4.821% | -40.76% |
| 11 | `CCCc1cc(CNC2CCN(c3cc(C)nc(N)n3)CC2)on1` | -20.49% | 0.245% |
| 12 | `CCc1ccc(S(=O)(=O)NCC2CCN(c3cnccn3)CC2)s1` | - | 2.747% |
| 13 | `Cc1occc1C(=O)NCc1cccnc1N(C)C` | - | 3.029% |
| 14 | `COC1COC2(CCN(Cc3ccccc3F)CC2)C1.O=C(O)C(F)(F)F` (stereo not drawn) | 10.15% | -23.81% |
| 15 | `CCc1ccc(C(=O)N(c2cccnc2)C(C)C)cc1S(C)(=O)=O` | 21.44% | -3.469% |
| 16 | `CN(C)CCN(C)C(=O)Nc1cc(F)cc(N2CCCC2)c1` | -0.9812% | -25.51% |
| 17 | `CCN(CC)c1ccc(NS(=O)(=O)c2cnn(C(C)C)c2)cn1` | 3.416% | -27.76% |
| 18 | `CC(C(=O)Nc1ccc(Cl)cn1)N1CCc2nn(C)c(=O)cc2C1` (stereo not drawn) | - | 3.749% |
| 19 | `Cc1ccc(C(=O)N2CCN(Cc3ccc(C#N)cc3)CC2)n1C` | -21.02% | -17.29% |
| 20 | `[H][C@]12CC[C@]([H])(CN(S(=O)(=O)c3cccnc3)C1)N(CC=C(C)C)C2` | - | 8.575% |
| 21 | `CCc1ccc(CNC[C@H]2C[C@@H](CO)N(C)[C@H]2c2ccccc2F)o1` | - | -18.22% |
| 22 | `O=C(c1ccc(N2CCCC2)nn1)N1CCCC(n2ccnc2)C1` (stereo not drawn) | 0.9101% | 9.037% |
| 23 | `O=C(O)[C@@H]1CCN(C(=O)Cc2ccccn2)[C@@H]1c1ccc(F)cc1` | -2.277% | 13.81% |
| 24 | `CC(NC(=O)Cc1ccon1)c1ccc(OCC2CC2)c(F)c1` (stereo not drawn) | -11.38% | 4.879% |
| 25 | `CC(C)NC(=O)CNC(C)COc1ccccc1` (stereo not drawn) | 28.6% | -20.9% |
| 26 | `Clc1ccc(-c2cnc(CNC3CCc4ncnn4C3)o2)cc1` (stereo not drawn) | - | -34.08% |
| 27 | `COc1ccc2cc(CNc3c(C)nn(C(C)C)c3C)ccc2c1` | -6.372% | -24.16% |
| 28 | `CC(C1CCN(Cc2ccc(N(C)C)nc2)CC1)N(C)C` (stereo not drawn) | 4.974% | -19.3% |
| 29 | `COCCN1CCC(c2nc3ccc(N4CCCC4)cn3n2)CC1.O=C(O)C(F)(F)F` | -35.26% | -52.12% |
| 30 | `COC(=O)c1ccc(N2CCN(C(=O)c3ccc(=O)n(C)c3)CC2)cc1` | 9.125% | 7.822% |
| 31 | `CC(NS(N)(=O)=O)c1ccc(OCc2ccc(F)cc2)cc1` (stereo not drawn) | -12.96% | -17.07% |
| 32 | `CCOc1ccc(C(=O)NC2CC2)cc1C` | - | 29.21% |
| 33 | `CCN(C)C[C@@H]1CN(S(=O)(=O)c2ccc(C#N)cc2)C[C@@H]1CO` | - | 6.279% |
| 34 | `COc1c(C)cnc(CNC(=O)c2cnc3onc(C)c3c2)c1C` | - | -3.347% |
| 35 | `CC(C)(C)NC(=O)CCOc1cccc(F)c1` | - | 23.55% |
| 36 | `O=C(C1CC1)N(Cc1ccc2cc[nH]c2c1)C1CC1` | 42.2% | -18.55% |
| 37 | `CC(C(=O)NC1CC1)N1CCN(Cc2ccn(C)c(=O)c2)CC1` (stereo not drawn) | - | -7.442% |
| 38 | `Cc1ccc(C2COCCN2C(=O)c2ccc(C#N)cc2)o1` (stereo not drawn) | 22.1% | 7.058% |
| 39 | `Cc1cccc(CN2CCc3[nH]nc(C(=O)N(C)C)c3C2)n1.O=C(O)C(F)(F)F` | - | -4.718% |
| 40 | `COCCC(=O)N(Cc1ccccn1)Cc1ccccc1C` | -7.526% | 8.44% |
| 41 | `CCN1CCn2c(C)cnc2C12CCN(C(=O)C(C)C)CC2.O=C(O)C(F)(F)F.O=C(O)C(F)(F)F` | 14.47% | 0.2177% |
| 42 | `CC(C)CC(=O)NCc1cccc(OCCN(C)C2CCOCC2)c1` | 21.38% | -34.45% |
| 43 | `COCCc1ncc(CN2C[C@@H](C(=O)O)[C@H](C(C)C)C2)cn1` | -45.71% | -13.68% |
| 44 | `CC(C)n1cc(C(=O)N2Cc3ccccc3OC3(CCOCC3)C2)cn1` | -5.416% | -26.05% |
| 45 | `COc1cc(C)ccc1OCC(=O)Nc1ccnc(OCCN(C)C)c1` | -44.48% | -8.04% |
| 46 | `COc1ccc(CCC(=O)NC2CCC(O)CC2)cc1OC` (stereo not drawn) | 22.82% | 2.299% |
| 47 | `O=C(O)C(F)(F)F.O=C(O)C(F)(F)F.O=C(O)CN1CCCC2(CCN2Cc2cccc(F)c2)C1` (stereo not drawn) | -13.87% | -6.004% |
| 48 | `CCNC(=O)CNC(=O)Nc1cccc(Cl)c1SC(F)F` | -2.703% | 3.337% |
| 49 | `O=C(NCc1cc[nH]n1)N1CCN(c2ccccc2Cl)CC1` | 21.19% | -15.97% |
| 50 | `CCN1CC(COC(=O)c2ccccc2Cl)CC1=O` (stereo not drawn) | 9.93% | -24.01% |
| 51 | `Cc1nc(CCCNC(=O)c2cc(F)ccc2O)n[nH]1` | 11.59% | 10.42% |
| 52 | `CCC(=O)Nc1ncn(Cc2cccnc2)n1` | -12.07% | -51.69% |
| 53 | `CC(C)c1noc(-c2ccc(NCC3CCCOC3)nc2)n1` (stereo not drawn) | 7.301% | -50.16% |
| 54 | `Cc1nn(C)c(C)c1NC(=O)Nc1cccnc1N1CCCC1` | - | -1.538% |
| 55 | `COC(=O)CCn1ccc(=O)c2ccccc21` | - | 2.073% |
| 56 | `O=C1CCC(C(=O)N(Cc2ccsc2)CC2CCCO2)=NN1` (stereo not drawn) | 15.08% | 8.488% |
| 57 | `CC(=O)N1CCC(c2nccnc2-c2ccc(C(=O)O)cc2)CC1` | -19.35% | -13.81% |
| 58 | `Cc1cc(C(=O)N2CCCC2c2nnc3n2CCCCC3)no1` (stereo not drawn) | 13.51% | 3.678% |
| 59 | `Cc1nc2c(c(N(C)CC3Cc4ccccc4CN3C)n1)CCNCC2` (stereo not drawn) | -1.924% | -43.16% |
| 60 | `[H][C@]12CCN(S(=O)(=O)c3ccc(F)cc3)C[C@@]1([H])OCCN(C(C)=O)C2` | -11.05% | 36.64% |
| 61 | `O=C(CN1CCOC(Cn2cccn2)C1)NC(C1CC1)C1CC1` (stereo not drawn) | -6.968% | 5.425% |
| 62 | `O=C(NCCCn1nc2ccccn2c1=O)NCc1ccccc1` | - | -0.3456% |
| 63 | `CN(Cc1cc(Br)cs1)Cc1nnsc1Cl` | 24% | 6.214% |
| 64 | `Cc1cc(C2CCCN(C(=O)c3cnn(C)c3)C2)ccn1` (stereo not drawn) | 7.075% | -27.77% |
| 65 | `Cn1cnc2ccc(NC(=O)CC3CCN(C4CCCCC4)CC3)cc21` | -33.27% | 0.7912% |
| 66 | `Cc1ccc(CN(C(=O)NC2CCS(=O)(=O)C2)C2CC2)o1` (stereo not drawn) | -16.36% | -27.95% |
| 67 | `CN(Cc1nnc(-c2ccco2)o1)CC1CCCN1c1cccnn1` (stereo not drawn) | - | 3.52% |
| 68 | `Cc1csc(N2CCN(Cc3ccccn3)CC2C)n1` (stereo not drawn) | -48.28% | 17.41% |
| 69 | `CC1CCN(c2ccc(C(=O)N3CCCC3c3ccc[nH]3)cn2)CC1` (stereo not drawn) | 84.24% | -5.625% |
| 70 | `CC(O)C1CCN(C(=O)Nc2nc(-c3ccccc3)ns2)CC1` (stereo not drawn) | 24.79% | 21.88% |
| 71 | `O=C(O)C(F)(F)F.O=C(O)C(F)(F)F.[H][C@@]12CCN(Cc3ccncc3)C[C@]1(C(=O)NCCOC)CCO2` | 11.1% | -7.628% |

Once more, the final 4:

Result for Cc1csc(N2CCN(Cc3ccccn3)CC2C)n1 (stereo not drawn) was A: -48.28%; B: 17.41%.
Result for CC1CCN(c2ccc(C(=O)N3CCCC3c3ccc[nH]3)cn2)CC1 (stereo not drawn) was A: 84.24%; B: -5.625%.
Result for CC(O)C1CCN(C(=O)Nc2nc(-c3ccccc3)ns2)CC1 (stereo not drawn) was A: 24.79%; B: 21.88%.
Result for O=C(O)C(F)(F)F.O=C(O)C(F)(F)F.[H][C@@]12CCN(Cc3ccncc3)C[C@]1(C(=O)NCCOC)CCO2 was A: 11.1%; B: -7.628%.